Reference: US20230213527A1, “COMPOSITIONS AND METHODS FOR POLYPEPTIDE ANALYSIS” (Quantum-Si Incorporated, priority 2021, published 2023)
These are yes or no findings as the source states them, for the method shown. Some binding calls cover weakened binding; strength is not graded here.

What was measured:
Assay in all cases: bulk characterization by fluorescence polarization (FIG. 7C)
[1] = molecular target: T1, labeled peptide with N-terminal isoleucine (X…-FITC, SEQ ID NO: 833, X = I)
T1 sequence (peptide, C-terminal FITC label): IAKLDEESILKQK

[2] = molecular target: T2, labeled peptide with N-terminal leucine (X…-FITC, SEQ ID NO: 833, X = L)
T2 sequence (peptide, C-terminal FITC label): LAKLDEESILKQK

[3] = molecular target: T3, labeled peptide with N-terminal valine (X…-FITC, SEQ ID NO: 833, X = V)
T3 sequence (peptide, C-terminal FITC label): VAKLDEESILKQK

Measured: binding

B1: PS961 (designed binder)
chain: MPTAASATESAIEDTPAPARPEVDGRTKPKRQPRYHVVLWDDDDHTYQYVVVMLRSLFGHPPSRGYRMAKEMDTQGRVIVLTTTREHAELKRDQIHAFGRDRLLARSKGSMKASIEAEE
binds: all assays above
